Experimental data as given in the supplement of paper PMC10331698.
± gives the standard deviation of the averaged measurements. Small differences around the control level are noise.

Legend:
Test in all cases: level (log10 ratio to DMSO vehicle control); higher = higher biomarker level / cell amount than vehicle control
[1] = compound: C=CC(=O)OCC(F)(F)C(F)(F)C(F)(F)C(F)(F)C(F)(F)C(F)(F)C(F)(F)C(F)F [1H,1H,9H-Perfluorononyl acrylate]; settings: 2200 nM; in DMSO
Method: (§1)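 BioMAP Diversity Plus panel of 12 human primary cell co-culture systems (3C, 4H, LPS, SAg, BT, BF4T, BE3C, CASM3C, HDF3CGF, KF3CT, MyoF, Mphg). Compounds were added 1 h before stimulation and left for 24 h (MyoF 48 h; BT 72 h for soluble read-outs or 6 d for IgG). Biomarkers were read by ELISA, cytotoxicity by SRB, PBMC viability and proliferation by Alamar Blue. Each well value was divided by the mean of 8 DMSO control wells on the same plate and log10 transformed; duplicate blinded samples were tested at 4 concentrations.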

[2] = compound: CCOC(=O)CC(=O)C(F)(F)C(F)(F)F [Ethyl pentafluoropropionyl acetate]; settings: 2200 nM; in DMSO
Method: as §1

[3] = compound: FC(F)(F)C(F)(F)C(F)(F)C(F)(F)C(F)(F)C(F)(F)C(F)(F)C(F)(F)CCS [2-(Perfluorooctyl)ethanthiol]; settings: in DMSO
Method: as §1

Perfluorooctanamidine = compound: N=C(N)C(F)(F)C(F)(F)C(F)(F)C(F)(F)C(F)(F)C(F)(F)C(F)(F)F [Perfluorooctanamidine]; settings: in DMSO
Method: as §1

[4] = compound: O=C(CC(=O)C(F)(F)C(F)(F)C(F)(F)F)c1cccs1 [(Perfluorobutyryl)-2-thenoylmethane]; settings: 2200 nM; in DMSO
Method: as §1

Perfluorodecanoic acid = compound: O=C(O)C(F)(F)C(F)(F)C(F)(F)C(F)(F)C(F)(F)C(F)(F)C(F)(F)C(F)(F)C(F)(F)F [Perfluorodecanoic acid]; settings: in DMSO
Method: as §1

Perfluorononanoic acid = compound: O=C(O)C(F)(F)C(F)(F)C(F)(F)C(F)(F)C(F)(F)C(F)(F)C(F)(F)C(F)(F)F [Perfluorononanoic acid]; settings: 2200 nM; in DMSO
Method: as §1

[5] = compound: O=C(O)C(F)(F)C(F)(F)C(F)(F)C(F)(F)C(F)(F)C(F)(F)C(F)(F)F [Ammonium perfluorooctanoate]; settings: 2200 nM; in DMSO
Method: as §1

Perfluorooctanoic acid = compound: O=C(O)C(F)(F)C(F)(F)C(F)(F)C(F)(F)C(F)(F)C(F)(F)C(F)(F)F [Perfluorooctanoic acid]; settings: 2200 nM; in DMSO
Method: as §1

[6] = compound: O=C(O)C(F)(F)OC(F)(F)C(F)(F)OC(F)(F)C(F)(F)OC(F)(F)C(F)(F)C(F)(F)C(F)(F)F [Perfluoro-3,6,9-trioxatridecanoic acid]; settings: 2200 nM; in DMSO
Method: as §1

[7] = compound: O=C(O)C(F)(F)OC(F)(F)C(F)(F)OC(F)(F)F [Perfluoro-3,6-dioxaheptanoic acid]; settings: 2200 nM; in DMSO
Method: as §1

[8] = compound: O=C(O)CCC(F)(C(F)(F)F)C(F)(F)F [4,4-bis(Trifluoromethyl)-4-fluoropropanoic acid]; settings: 2200 nM; in DMSO
Method: as §1

[9] = compound: OCC(F)(F)C(F)(F)C(F)(F)C(F)(F)C(F)(F)C(F)(F)C(F)(F)C(F)(F)CO [1H,1H,10H,10H-Perfluorodecane-1,10-diol]; settings: 2200 nM; in DMSO
Method: as §1

[10] = compound: OCC(F)(F)OC(F)(F)C(F)(F)OC(F)(F)C(F)(F)OC(F)(F)CO [1H,1H,11H,11H-Perfluorotetraethylene glycol]; settings: 2200 nM; in DMSO
Method: as §1

Row | Test System | level (log10) [1] | level (log10) [2] | level (log10) ([3]; 740 nM) | level (log10) ([3]; 2200 nM) | level (log10) (Perfluorooctanamidine; 2200 nM) | level (log10) (Perfluorooctanamidine; 6700 nM) | level (log10) (Perfluorooctanamidine; 20000 nM) | level (log10) (Perfluorooctanamidine; 60000 nM) | level (log10) [4] | level (log10) (Perfluorodecanoic acid; 2200 nM) | level (log10) (Perfluorodecanoic acid; 6700 nM) | level (log10) (Perfluorodecanoic acid; 20000 nM) | level (log10) (Perfluorononanoic acid) | level (log10) [5] | level (log10) (Perfluorooctanoic acid) | level (log10) [6] | level (log10) [7] | level (log10) [8] | level (log10) [9] | level (log10) [10]
1 | MyoF:CD106/VCAM-1 | -0.001 ± 0.0028 | -0.002 ± 0.013 | -0.004 ± 0.0042 | 0.0045 ± 0.025 | 0.004 ± 0.0099 | 0.0115 ± 0.026 | -0.002 ± 0.018 | 0.011 | -0.022 ± 0.03 | -0.009 ± 0.011 | -0.019 ± 0.0071 | -0.084 ± 0.02 | -0.012 ± 0.017 | -0.0045 ± 0.00071 | -0.004 ± 0.0014 | 0.0065 ± 0.016 | 0.0015 ± 0.043 | -0.012 | 0.0095 ± 0.023 | 0.01 ± 0.0042
2 | KF3CT:CXCL8/IL-8 | 0.0005 ± 0.011 | -0.0025 ± 0.0035 | -0.015 ± 0.0042 | -0.0125 ± 0.025 | 0.0075 ± 0.0064 | 0.0135 ± 0.021 | 0.0305 ± 0.018 | 0.043 | -0.015 ± 0.038 | 0.0195 ± 0.016 | -0.0225 ± 0.011 | -0.0035 ± 0.018 | 0 ± 0.041 | -0.0155 ± 0.03 | -0.0015 ± 0.011 | -0.0115 ± 0.03 | 0.004 ± 0.018 | -0.027 ± 0.024 | 0.005 ± 0.014 | 0.0025 ± 0.064
3 | BF4T:Keratin 8/18 | 0.0015 ± 0.016 | -0.0085 ± 0.018 | -0.055 ± 0.023 | -0.0235 ± 0.036 | 0.012 ± 0.018 | -0.012 ± 0.0057 | -0.0165 ± 0.016 | 0.039 | -0.032 ± 0.021 | 0.0275 ± 0.0021 | 0.011 ± 0.0028 | -0.335 ± 0.042 | -0.0255 ± 0.028 | 0.023 ± 0.0028 | 0.012 ± 0.028 | 0.022 ± 0.02 | -0.0125 ± 0.049 | 0.0015 ± 0.046 | 0.024 ± 0.024 | 0.012 ± 0.0099
4 | MyoF:Collagen III | -0.001 ± 0.051 | -0.02 ± 0.018 | 0.0025 ± 0.0092 | -0.0095 ± 0.028 | 0.0105 ± 0.016 | -0.0045 ± 0.015 | 0.003 ± 0.017 | 0.006 | -0.025 ± 0.0014 | -0.015 ± 0.011 | -0.028 ± 0.03 | -0.36 ± 0.066 | -0.0215 ± 0.013 | -0.01 ± 0.018 | 0.003 ± 0.011 | -0.007 ± 0.048 | 0.0015 ± 0.012 | -0.022 ± 0.021 | -0.0025 ± 0.032 | -0.0015 ± 0.016
5 | KF3CT:CXCL9/MIG | -0.0075 ± 0.005 | -0.002 ± 0.0071 | 0.017 ± 0.014 | 0.0075 ± 0.00071 | 0.0085 ± 0.0064 | -0.0015 ± 0.011 | -0.0005 ± 0.0092 | 0.015 | 0.012 ± 0.011 | 0.0105 ± 0.0064 | 0.0065 ± 0.0078 | -0.0185 ± 0.0035 | -0.0275 ± 0.011 | 0.003 ± 0.0028 | 0.0055 ± 0.005 | 0.011 ± 0.031 | -0.017 ± 0.017 | -0.019 ± 0.016 | -0.006 ± 0.0071 | 0.004 ± 0.021
6 | 3C:CCL2/MCP-1 | 0.027 ± 0.014 | -0.0065 ± 0.018 | 0.008 ± 0.085 | 0.0075 ± 0.05 | 0.0245 ± 0.0092 | 0.0185 ± 0.012 | 0.0085 ± 0.011 | 0.062 | 0.016 ± 0.061 | 0.0095 ± 0.029 | 0.0065 ± 0.013 | -0.004 ± 0.0028 | -0.045 ± 0.017 | 0.0065 ± 0.028 | 0.0135 ± 0.0021 | 0.0265 ± 0.052 | -0.0085 ± 0.11 | -0.002 ± 0.013 | 0.024 ± 0.0099 | 0.008 ± 0.055
7 | CASM3C:PAI-I | -0.012 ± 0.0028 | -0.0045 ± 0.023 | 0.0005 ± 0.013 | -0.0145 ± 0.023 | 0.0115 ± 0.0078 | 0.0055 ± 0.012 | 0.0015 ± 0.0064 | 0.022 | -0.0015 ± 0.005 | 0.0035 ± 0.0092 | 0.001 ± 0.0014 | -0.0015 ± 0.005 | 0.0035 ± 0.00071 | -0.001 ± 0.0099 | 0.004 ± 0.0057 | 0.002 ± 0.0099 | 0.0045 ± 0.0021 | 0.0025 ± 0.011 | -0.001 ± 0.0071 | 0.0045 ± 0.0078
8 | 3C:CD141/Thrombomodulin | -0.0315 ± 0.044 | 0.005 ± 0.038 | -0.021 ± 0.034 | 0.004 ± 0.0014 | -0.006 ± 0.023 | -0.015 ± 0.031 | -0.021 ± 0.024 | -0.013 | 0.0115 ± 0.029 | -0.024 ± 0.034 | -0.019 ± 0.025 | -0.0445 ± 0.012 | -0.042 ± 0.024 | 0.0085 ± 0.005 | 0.0305 ± 0.046 | 0.008 ± 0.0014 | -0.014 ± 0.031 | 0.0035 ± 0.064 | -0.0205 ± 0.016 | -0.021 ± 0.033
9 | HDF3CGF:CCL2/MCP-1 | -0.026 ± 0.03 | -0.009 ± 0.02 | -0.0055 ± 0.012 | -0.0155 ± 0.0078 | 0.0085 ± 0.037 | -0.0075 ± 0.0035 | -0.005 ± 0.018 | -0.068 | 0.0305 ± 0.0092 | -0.019 ± 0.02 | -0.0595 ± 0.0078 | 0.042 ± 0.034 | -0.0025 ± 0.06 | -0.0415 ± 0.0035 | -0.043 ± 0.02 | -0.001 ± 0.0099 | -0.0065 ± 0.03 | 0.004 ± 0.023 | -0.015 ± 0.014 | 0.0035 ± 0.023
10 | KF3CT:CD54/ICAM-1 | 0.019 ± 0.011 | -0.0165 ± 0.032 | -0.001 ± 0.0057 | 0.003 ± 0.023 | 0.0045 ± 0.015 | 0.0055 ± 0.033 | 0.0175 ± 0.022 | 0.064 | -0.026 ± 0.0071 | -0.011 ± 0.023 | 0.0095 ± 0.013 | -0.003 ± 0.0028 | -0.0165 ± 0.0021 | -0.0105 ± 0.0078 | 0.005 ± 0.013 | 0.007 | -0.004 ± 0.0071 | -0.002 ± 0.0099 | -0.0215 ± 0.0078 | -0.011 ± 0.025
11 | BF4T:MMP-1 | 0.0155 ± 0.0092 | 0.011 ± 0.041 | 0.0085 ± 0.019 | -0.0025 ± 0.0092 | 0.009 ± 0.0071 | 0.015 ± 0.02 | 0.006 ± 0.024 | 0.092 | -0.02 ± 0.0042 | 0.017 ± 0.023 | -0.0015 ± 0.0035 | -0.201 ± 0.011 | -0.02 ± 0.028 | 0.007 ± 0.016 | 0.007 ± 0.018 | 0.0085 ± 0.005 | -0.018 ± 0.03 | -0.0035 ± 0.019 | 0.0085 ± 0.018 | -0.0055 ± 0.0092
12 | BE3C:Keratin 8/18 | -0.006 ± 0.058 | 0.0035 ± 0.05 | -0.0245 ± 0.023 | -0.022 ± 0.018 | -0.002 ± 0.031 | -0.0165 ± 0.0021 | -0.014 ± 0.0057 | 0.007 | -0.0385 ± 0.019 | -0.0095 ± 0.0064 | 0.0035 ± 0.029 | -0.337 ± 0.0035 | -0.0425 ± 0.023 | -0.0215 ± 0.015 | 0.005 ± 0.023 | -0.017 ± 0.044 | -0.0415 ± 0.069 | -0.013 ± 0.023 | -0.037 ± 0.014 | 0.0115 ± 0.00071

Record cards, as listed above. Order of values: level (log10) [1] | level (log10) [2] | level (log10) ([3]; 740 nM) | level (log10) ([3]; 2200 nM) | level (log10) (Perfluorooctanamidine; 2200 nM) | level (log10) (Perfluorooctanamidine; 6700 nM) | level (log10) (Perfluorooctanamidine; 20000 nM) | level (log10) (Perfluorooctanamidine; 60000 nM) | level (log10) [4] | level (log10) (Perfluorodecanoic acid; 2200 nM) | level (log10) (Perfluorodecanoic acid; 6700 nM) | level (log10) (Perfluorodecanoic acid; 20000 nM) | level (log10) (Perfluorononanoic acid) | level (log10) [5] | level (log10) (Perfluorooctanoic acid) | level (log10) [6] | level (log10) [7] | level (log10) [8] | level (log10) [9] | level (log10) [10]
BF4T:MMP-1 as listed: 0.0155 ± 0.0092 | 0.011 ± 0.041 | 0.0085 ± 0.019 | -0.0025 ± 0.0092 | 0.009 ± 0.0071 | 0.015 ± 0.02 | 0.006 ± 0.024 | 0.092 | -0.02 ± 0.0042 | 0.017 ± 0.023 | -0.0015 ± 0.0035 | -0.201 ± 0.011 | -0.02 ± 0.028 | 0.007 ± 0.016 | 0.007 ± 0.018 | 0.0085 ± 0.005 | -0.018 ± 0.03 | -0.0035 ± 0.019 | 0.0085 ± 0.018 | -0.0055 ± 0.0092
CASM3C:PAI-I as listed: -0.012 ± 0.0028 | -0.0045 ± 0.023 | 0.0005 ± 0.013 | -0.0145 ± 0.023 | 0.0115 ± 0.0078 | 0.0055 ± 0.012 | 0.0015 ± 0.0064 | 0.022 | -0.0015 ± 0.005 | 0.0035 ± 0.0092 | 0.001 ± 0.0014 | -0.0015 ± 0.005 | 0.0035 ± 0.00071 | -0.001 ± 0.0099 | 0.004 ± 0.0057 | 0.002 ± 0.0099 | 0.0045 ± 0.0021 | 0.0025 ± 0.011 | -0.001 ± 0.0071 | 0.0045 ± 0.0078
